Like-named read-outs stand apart in the source and are kept apart here. Results are given in words; binding and its absence hold for the method and conditions named. Binding seen in cells or lysates may run through a third protein. A yes stands for co-enrichment or nearness to the bait. Other partners may have been found. For some of these results: No binding means not detected with the bait.
Experiments:
Experiment in all cases: proximity labelling
miniTurbo-VASP [1] = biological target: miniTurbo-VASP (UniProt P50552)
miniTurbo-PFN1 [2] = biological target: miniTurbo-PFN1 (UniProt P07737)
[3] = biological target: LMNA N-terminally fused to microID (UniProt P02545)
[4] = biological target: LMNA N-terminally fused to lbmicroID2 (UniProt P02545)
[5] = biological target: LMNA N-terminally fused to TurboID (UniProt P02545)
[6] = biological target: LMNA N-terminally fused to BioID2 (UniProt P02545)
[7] = biological target: LMNA N-terminally fused to BASU (UniProt P02545)
[8] = biological target: LMNA N-terminally fused to miniTurbo (UniProt P02545)
[9] = biological target: LMNA N-terminally fused to BirA* (UniProt P02545)
[10] = biological target: LMNA N-terminally fused to microID2 (UniProt P02545)
[11] = biological target: LMNA N-terminally fused to AirID (UniProt P02545)
[12] = biological target: LMNA N-terminally fused to ultraID (UniProt P02545)
miniTurbo-VASP [13] = biological target: miniTurbo-VASP (UniProt P50552); remark: listed apart in the source
miniTurbo-PFN1 [14] = biological target: miniTurbo-PFN1 (UniProt P07737); remark: listed apart in the source

Sequences of proteins named here, by UniProt entry; tags and fusion partners are left off. Residues count along the entry.
UniProt P50552: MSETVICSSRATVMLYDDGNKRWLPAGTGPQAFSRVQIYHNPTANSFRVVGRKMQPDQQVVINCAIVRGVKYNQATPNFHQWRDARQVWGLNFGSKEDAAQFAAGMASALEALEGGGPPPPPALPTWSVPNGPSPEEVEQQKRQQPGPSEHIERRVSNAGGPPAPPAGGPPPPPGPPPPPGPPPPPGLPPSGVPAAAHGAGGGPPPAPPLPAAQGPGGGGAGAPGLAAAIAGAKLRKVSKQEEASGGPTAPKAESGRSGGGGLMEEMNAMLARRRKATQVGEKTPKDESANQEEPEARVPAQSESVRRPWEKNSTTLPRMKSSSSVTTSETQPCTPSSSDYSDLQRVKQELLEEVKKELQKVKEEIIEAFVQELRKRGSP
UniProt P07737: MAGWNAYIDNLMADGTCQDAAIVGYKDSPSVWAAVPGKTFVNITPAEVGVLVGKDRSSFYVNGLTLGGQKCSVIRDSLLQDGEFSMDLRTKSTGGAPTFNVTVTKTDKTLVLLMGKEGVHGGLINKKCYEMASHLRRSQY
UniProt P02545: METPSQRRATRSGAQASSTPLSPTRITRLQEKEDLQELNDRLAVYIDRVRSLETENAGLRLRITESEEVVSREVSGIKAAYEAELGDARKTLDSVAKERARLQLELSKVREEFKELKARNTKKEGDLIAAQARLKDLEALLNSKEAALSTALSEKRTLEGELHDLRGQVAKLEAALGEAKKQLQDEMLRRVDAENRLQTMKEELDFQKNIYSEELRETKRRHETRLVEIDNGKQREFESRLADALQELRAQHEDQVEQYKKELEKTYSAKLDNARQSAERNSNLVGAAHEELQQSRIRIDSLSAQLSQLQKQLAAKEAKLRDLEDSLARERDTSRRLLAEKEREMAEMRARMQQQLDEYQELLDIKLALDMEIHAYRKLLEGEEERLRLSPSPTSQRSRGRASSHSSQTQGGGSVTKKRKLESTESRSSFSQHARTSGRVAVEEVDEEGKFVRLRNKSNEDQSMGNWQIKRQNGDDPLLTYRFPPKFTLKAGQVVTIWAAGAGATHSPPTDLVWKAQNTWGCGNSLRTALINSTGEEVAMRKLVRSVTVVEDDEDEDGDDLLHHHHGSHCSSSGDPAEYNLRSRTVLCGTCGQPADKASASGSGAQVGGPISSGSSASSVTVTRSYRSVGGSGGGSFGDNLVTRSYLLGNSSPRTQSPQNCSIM
UniProt P61604: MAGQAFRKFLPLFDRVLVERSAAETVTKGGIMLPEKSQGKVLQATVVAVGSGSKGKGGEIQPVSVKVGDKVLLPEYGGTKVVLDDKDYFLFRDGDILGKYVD
UniProt P28331, residues 24-727: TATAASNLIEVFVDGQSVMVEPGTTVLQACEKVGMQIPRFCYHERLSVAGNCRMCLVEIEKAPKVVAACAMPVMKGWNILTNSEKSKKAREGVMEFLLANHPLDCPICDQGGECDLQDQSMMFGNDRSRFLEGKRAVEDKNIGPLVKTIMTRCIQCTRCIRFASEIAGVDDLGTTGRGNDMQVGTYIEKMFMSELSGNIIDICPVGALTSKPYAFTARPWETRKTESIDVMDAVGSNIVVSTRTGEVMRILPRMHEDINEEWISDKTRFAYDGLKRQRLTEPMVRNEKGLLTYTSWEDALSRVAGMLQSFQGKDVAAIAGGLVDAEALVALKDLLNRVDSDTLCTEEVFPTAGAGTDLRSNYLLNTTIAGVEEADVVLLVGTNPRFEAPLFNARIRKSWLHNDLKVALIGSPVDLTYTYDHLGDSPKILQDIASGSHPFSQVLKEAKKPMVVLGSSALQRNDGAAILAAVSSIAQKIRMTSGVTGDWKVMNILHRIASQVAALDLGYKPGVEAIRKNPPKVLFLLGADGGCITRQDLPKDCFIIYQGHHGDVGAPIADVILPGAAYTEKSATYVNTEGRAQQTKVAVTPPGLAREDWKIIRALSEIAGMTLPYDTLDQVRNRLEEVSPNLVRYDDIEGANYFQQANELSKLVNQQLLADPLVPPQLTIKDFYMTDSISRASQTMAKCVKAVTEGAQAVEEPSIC

Molecule | binding (miniTurbo-VASP [1]) | binding (miniTurbo-PFN1 [2]) | binding [3] | binding [4] | binding [5] | binding [6] | binding [7] | binding [8] | binding [9] | binding [10] | binding [11] | binding [12] | binding (miniTurbo-VASP [13]) | binding (miniTurbo-PFN1 [14])
LMNB2 (protein, UniProt Q03252 1-620) MSPPSPGRRREQRRPRAAATMATPLPGRAGGPATPLSPTRLSRLQEKEELRELNDRLAHYIDRVRALELENDRLLLKISEKEEVTTREVSGIKALYESELADARRVLDETARERARLQIEIGKLRAELDEVNKSAKKREGELTVAQGRVKDLESLFHRSEVELAAALSDKRGLESDVAELRAQLAKAEDGHAVAKKQLEKETLMRVDLENRCQSLQEELDFRKSVFEEEVRETRRRHERRLVEVDSSRQQEYDFKMAQALEELRSQHDEQVRLYKLELEQTYQAKLDSAKLSSDQNDKAASAAREELKEARMRLESLSYQLSGLQKQASAAEDRIRELEEAMAGERDKFRKMLDAKEQEMTEMRDVMQQQLAEYQELLDVKLALDMEINAYRKLLEGEEERLKLSPSPSSRVTVSRATSSSSGSLSATGRLGRSKRKRLEVEEPLGSGPSVLGTGTGGSGGFHLAQQASASGSVSIEEIDLEGKFVQLKNNSDKDQSLGNWRIKRQVLEGEEIAYKFTPKYILRAGQMVTVWAAGAGVAHSPPSTLVWKGQSSWGTGESFRTVLVNADGEEVAMRTVKKSSVMRENENGEEEEEEAEFGEEDLFHQQGDPRTTSRGCYVM |  |  | binds | binds | binds | binds | binds | binds | binds | binds | binds | binds |  | 
TMEM201 (protein, UniProt Q5SNT2 1-666) MEGVSALLARCPTAGLAGGLGVTACAAAGVLLYRIARRMKPTHTMVNCWFCNQDTLVPYGNRNCWDCPHCEQYNGFQENGDYNKPIPAQYLEHLNHVVSSAPSLRDPSQPQQWVSSQVLLCKRCNHHQTTKIKQLAAFAPREEGRYDEEVEVYRHHLEQMYKLCRPCQAAVEYYIKHQNRQLRALLLSHQFKRREADQTHAQNFSSAVKSPVQVILLRALAFLACAFLLTTALYGASGHFAPGTTVPLALPPGGNGSATPDNGTTPGAEGWRQLLGLLPEHMAEKLCEAWAFGQSHQTGVVALGLLTCLLAMLLAGRIRLRRIDAFCTCLWALLLGLHLAEQHLQAASPSWLDTLKFSTTSLCCLVGFTAAVATRKATGPRRFRPRRFFPGDSAGLFPTSPSLAIPHPSVGGSPASLFIPSPPSFLPLANQQLFRSPRRTSPSSLPGRLSRALSLGTIPSLTRADSGYLFSGSRPPSQVSRSGEFPVSDYFSLLSGSCPSSPLPSPAPSVAGSVASSSGSLRHRRPLISPARLNLKGQKLLLFPSPPGEAPTTPSSSDEHSPHNGSLFTMEPPHVPRKPPLQDVKHALDLRSKLERGSACSNRSIKKEDDSSQSSTCVVDTTTRGCSEEAATWRGRFGPSLVRGLLAVSLAANALFTSVFLYQSLR |  |  | binds | binds | binds | binds | binds | binds | binds | binds | binds | binds |  | 
IARS2 (protein, UniProt Q9NSE4 49-1012) SNHQPNSNSGRYRDTVLLPQTSFPMKLLGRQQPDTELEIQQKCGFSELYSWQRERKVKTEFCLHDGPPYANGDPHVGHALNKILKDIANRFHMMNGSKIHFVPGWDCHGLPIEIKVLSELGREAQNLSAMEIRKKARSFAKAAIEKQKSAFIRWGIMADWNNCYYTFDGKYEAKQLRTFYQMYDKGLVYRSYKPVFWSPSSRTALAEAELEYNPEHVSRSIYVKFPLLKPSPKLASLIDGSSPVSILVWTTQPWTIPANEAVCYMPESKYAVVKCSKSGDLYVLAADKVASVASTLETTFETISTLSGVDLENGTCSHPLIPDKASPLLPANHVTMAKGTGLVHTAPAHGMEDYGVASQHNLPMDCLVDEDGVFTDVAGPELQNKAVLEEGTDVVIKMLQTAKNLLKEEKLVHSYPYDWRTKKPVVIRASKQWFINITDIKTAAKELLKKVKFIPGSALNGMVEMMDRRPYWCISRQRVWGVPIPVFHHKTKDEYLINSQTTEHIVKLVEQHGSDIWWTLPPEQLLPKEVLSEVGGPDALEYVPGQDILDIWFDSGTSWSYVLPGPDQRADLYLEGKDQLGGWFQSSLLTSVAARKRAPYKTVIVHGFTLGEKGEKMSKSLGNVIHPDVVVNGGQDQSKEPPYGADVLRWWVADSNVFTEVAIGPSVLNAARDDISKLRNTLRFLLGNVADFNPETDSIPVNDMYVIDQYMLHLLQDLANKITELYKQYDFGKVVRLLRTFYTRELSNFYFSIIKDRLYCEKENDPKRRSCQTALVEILDVIVRSFAPILPHLAEEVFQHIPYIKEPKSVFRTGWISTSSIWKKPGLEEAVESACAMRDSFLGSIPGKNAAEYKVITVIEPGLLFEIIEMLQSEETSSTSQLNELMMASESTLLAQEPREMTADVIELKGKFLINLEGGDIREESSYKVIVMPTTKEKCPRCWKYTAESSDTLCPRCAEVVSGK |  |  |  |  |  |  |  |  |  |  |  |  | no binding | no binding

Second part, the molecule after the results:

binding (miniTurbo-VASP [1]) | binding (miniTurbo-PFN1 [2]) | binding [3] | binding [4] | binding [5] | binding [6] | binding [7] | binding [8] | binding [9] | binding [10] | binding [11] | binding [12] | binding (miniTurbo-VASP [13]) | binding (miniTurbo-PFN1 [14]) | Molecule
no binding | no binding |  |  |  |  |  |  |  |  |  |  |  |  | HSPE1 (from UniProt P61604 1-102)
no binding | no binding |  |  |  |  |  |  |  |  |  |  |  |  | NDUFS1 (from UniProt P28331 24-727)
 |  |  |  |  |  |  |  |  |  |  |  | no binding | no binding | GRSF1 (protein, UniProt Q12849 118-480) SQESKTTYLEDLPPPPEYELAPSKLEEEVDDVFLIRAQGLPWSCTMEDVLNFFSDCRIRNGENGIHFLLNRDGKRRGDALIEMESEQDVQKALEKHRMYMGQRYVEVYEINNEDVDALMKSLQVKSSPVVNDGVVRLRGLPYSCNEKDIVDFFAGLNIVDITFVMDYRGRRKTGEAYVQFEEPEMANQALLKHREEIGNRYIEIFPSRRNEVRTHVGSYKGKKIASFPTAKYITEPEMVFEEHEVNEDIQPMTAFESEKEIELPKEVPEKLPEAADFGTTSSLHFVHMRGLPFQANAQDIINFFAPLKPVRITMEYSSSGKATGEADVHFETHEDAVAAMLKDRSHVHHRYIELFLNSCPKGK
